The campaign covered roughly 330,000 compounds. About 7,700 (2.3%) were called active. The inconclusive results got no clear call from the source; some entries with a clear call stand among them for comparison. Calls come from the whole dose curve; as a rule, active = well fitted inhibition curve with a large enough effect; inconclusive = small, poorly fitted or top-dose-only effect, or effect the other way; inactive = flat fitted curve, though single readings scatter. A potency beside an inconclusive call is a rough fit, not a confirmed value.
Test: qHTS screen for small molecules that inhibit ELG1-dependent DNA repair in human embryonic kidney (HEK293T) cells expressing luciferase-tagged ELG1; note: nearly all actives have a fitted effect of over 55% in size
Conditions: HEK293T ELG1-luciferase reporter, luminescence, 16 h, DNA damage induced by 5-fluorouridine; activity change, negative = inhibition: at 46.1 µM (top of the series)
Outline: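 DMSO vehicle served as the neutral condition. Each well held 2,000 cells given 5-fluorouridine plus compound; after 16 hr at 37 °C/5% CO2, ONE-Glo was added and luciferase measured 30 min later.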
% is set by controls: 0 for no effect and ±100 for the full control effect; potency is the fitted concentration of half-maximal effect.

Compound	activity change, negative = inhibition	Potency
COC(=O)c1c(C)[nH]c(C(=O)C(C)OC(=O)c2ccco2)c1C (stereo unspecified)	inactive: 7.55%	
CC(C)(C)C(=O)NC(=S)NNC(=O)C(c1ccccc1)c1ccccc1	inactive: -11.1%	
S=C(NCCC1=CCCCC1)Nc1ccc(Cl)cc1		inconclusive: 29.1 µM [activator, single point]
O=C(Nc1ccc(OC(F)(F)F)cc1)c1cnc2n(c1=O)CCS2		inconclusive: 14.6 µM [activator, partial curve, poor fit]
COc1ccc(CNC(=O)COC(=O)c2ccc(C)c(S(=O)(=O)N3CCOCC3)c2)cc1OC		inconclusive: 7.3 µM [inhibitor, partial curve, poor fit]
O=C(Nc1ccc(F)c(F)c1)c1oc2ccccc2c1NC(=O)C1CCCO1 (stereo unspecified)	inactive: -7.47%	
COc1cc(NC(=S)NCCc2ccc(S(N)(=O)=O)cc2)c(OC)cc1Cl	inactive: -21%	
CC(NC(=O)CCc1nnc(-c2ccc(-c3ccccc3)cc2)o1)c1nc2ccccc2[nH]1 (stereo unspecified)		inconclusive: 1.83 µM [activator, full curve]
CN1C(=O)/C(=C/c2ccccc2OCc2ccccc2)NC1=S		inconclusive: 16.4 µM [inhibitor, partial curve]
CCCN(CCC)Cc1c(C(=O)N/N=C/C(C)=C\c2ccccc2)nnn1-c1nonc1N		inconclusive: 29.1 µM [inhibitor, single point]
O=C(Nc1cnn(Cc2ccccc2)c1)NC12CC3CC(CC(C3)C1)C2		inconclusive: 18.4 µM [inhibitor, single point]
CC1Cc2ccccc2N1C(=O)COC(=O)/C=C/c1ccc(F)cc1 (stereo unspecified)		inconclusive: 18.3 µM [inhibitor, partial curve, poor fit]
O=C(NCc1ccco1)C1CC(c2ccc(Cl)cc2)=NO1 (stereo unspecified)		inconclusive: 7.3 µM [activator, partial curve, poor fit]
O=C(Nc1ccc2oc(-c3ccncc3)nc2c1)c1ccccc1F	inactive: 26.2%	
COc1cc(NC(=O)N[C@@H](CCSC)C(=O)O)cc(OC)c1		inconclusive: 16.4 µM [inhibitor, partial curve, poor fit]
CCOc1ccc(CCNC(=O)C(C)n2nc(C)n3c(cc4occc43)c2=O)cc1OCC (stereo unspecified)		inconclusive: 16.4 µM [inhibitor, partial curve, poor fit]
CCC(=O)Nc1nnc(-c2ccccn2)o1		inconclusive: 16.4 µM [activator, partial curve, poor fit]
Cc1ccc(NC(=O)C2COc3ccccc3O2)c(C)c1 (stereo unspecified)		inconclusive: 15.8 µM [activator, partial curve, poor fit]
O=C(CCc1ccccc1)OCCN1CCOCC1	inactive: 6.08%	
COc1cccc(NC(=O)CSc2nnc(COc3ccc4c(c3)CCCC4)o2)c1	inactive: -12.7%	
Cc1cc(Nc2cc(Cl)cc(Cl)c2)nc(N)n1		inconclusive: 3.26 µM [inhibitor, single point]
COC(=O)c1c(-c2c(Cl)cccc2Cl)noc1NC(=O)NN1CCCCC1		inconclusive: 29.1 µM [inhibitor, single point]
C/C=N\NC(=O)COc1cc(C)ccc1C	inactive: 2.75%	
Cc1ccc(C)c(N2CCN(CCCc3ccccc3)CC2)c1	inactive: -17.7%	

Compound	activity change, negative = inhibition	Potency
O=C(CCCCCN1C(=O)CCC1=O)Nc1ccc2c(c1)OCCO2		inconclusive: 29.1 µM [activator, partial curve, poor fit]
CCc1nnc(NC(=O)c2ccc(F)c(S(=O)(=O)N3CCCCC3)c2)s1		inconclusive: 14.6 µM [inhibitor, partial curve]
CN(Cc1cccs1)CC(O)COCc1ccco1 (stereo unspecified)		inconclusive: 23.1 µM [activator, partial curve, poor fit]
Cc1cccc(NC(=S)NCc2ccc3c(c2)OCO3)c1C	inactive: 3.67%	
C=CCNC(=O)c1ccc(N(Cc2ccc(Cl)cc2)S(C)(=O)=O)cc1		inconclusive: 35.5 µM [activator, single point]
COc1cc(-c2nc(-c3ccccc3)c(-c3cccs3)[nH]2)cc(OC)c1O		inconclusive: 20.6 µM [inhibitor, partial curve]
COc1ccc(-c2ccc3c(c2)S(=O)(=O)c2cccc(C(=O)NC[C@@H]4CCCO4)c2C3=O)cc1OC		inconclusive: 18.3 µM [inhibitor, partial curve]
CC(=O)Nc1cccc(/C(C)=N/NC(=O)c2cc(-c3ccncc3)nc3ccccc23)c1		inconclusive: 29.1 µM [inhibitor, partial curve, poor fit]
CC(C)(C)n1nnnc1C(c1ccccc1F)N1CCN(C2CCCC2)CC1 (stereo unspecified)	inactive: -1.02%	
O=C(CCC(=O)c1ccc(Oc2ccccc2)cc1)Nc1cccc(Cl)c1Cl		inconclusive: 29.1 µM [activator, partial curve, poor fit]
O=C(Nc1cccc(F)c1)c1ccc2c(c1)OCO2		inconclusive: 16.4 µM [activator, partial curve]
Cc1ccc(S(=O)(=O)N2CCN(S(C)(=O)=O)C2C)cc1 (stereo unspecified)	inactive: 6.25%	
Cc1cc(NC(=O)c2ccc(S(=O)(=O)N3CCc4ccccc43)cc2)no1		inconclusive: 11.6 µM [inhibitor, partial curve]
CC(=O)Nc1cccc(-c2csc(Nc3ncccn3)n2)c1		inconclusive: 3.26 µM [activator, full curve]
Cn1c(=NC(=O)CCS(=O)(=O)c2ccccc2)sc2cc(F)ccc21		inconclusive: 6.51 µM [activator, single point]
Cc1ccc(C(=O)NC2CC3CCC(C2)N3C)cc1 (stereo unspecified)	inactive: 4.49%	
c1ccc(CSc2nnc(-c3cccnc3)o2)cc1		inconclusive: 20.6 µM [activator, partial curve]
OCCN1CCN(C(=S)Nc2ccc(Oc3ccccc3)cc2)CC1	inactive: -0.946%	
CN(C)c1ccnc(Nc2ccc(O)cc2)c1C#N	inactive: -7.69%	
COc1cc(/C=N/NC(=O)CC#N)ccc1Oc1nc(Cl)ncc1F	inactive: -10.2%	
CCC1CCCCN1C(=O)c1ccc2nc(Cc3ccc(OC)cc3)oc2c1 (stereo unspecified)		inconclusive: 20.6 µM [activator, single point]
Cc1nn(Cc2ccc(F)cc2)c(Cl)c1/C=N/NC(=O)c1ccccc1	inactive: -7.88%	
CC(C)C(=O)Nc1ccc(C(=O)CN2C(=O)NC3(CCOc4ccccc43)C2=O)cc1 (stereo unspecified)		inconclusive: 16.4 µM [inhibitor, partial curve, poor fit]
O=C1CN(C(=O)COc2ccc([N+](=O)[O-])cc2Cl)c2ccccc2N1	inactive: 7.57%	

By substructure, the compounds so far with an NH in an aromatic ring (3)
Compound	activity change, negative = inhibition	Potency
COC(=O)c1c(C)[nH]c(C(=O)C(C)OC(=O)c2ccco2)c1C (stereo unspecified)	inactive: 7.55%	
CC(NC(=O)CCc1nnc(-c2ccc(-c3ccccc3)cc2)o1)c1nc2ccccc2[nH]1 (stereo unspecified)		inconclusive: 1.83 µM [activator, full curve]
COc1cc(-c2nc(-c3ccccc3)c(-c3cccs3)[nH]2)cc(OC)c1O		inconclusive: 20.6 µM [inhibitor, partial curve]

Following part.

Compound	activity change, negative = inhibition	Potency
Cc1ccc(C(=O)Nc2cccc(C(=O)N3CCN(C)CC3)c2)cc1		inconclusive: 13 µM [activator, partial curve]
CN1CCN(c2ccccc2NC(=O)c2cc3ccccc3o2)CC1	inactive: 3.97%	
O=C(Nc1ccc(Cl)c(S(=O)(=O)N2CCOCC2)c1)c1cc(-c2ccccn2)nc2ccccc12		active: 18.3 µM
COc1cccc(CNC(=O)C(C)n2ccc3cc(S(=O)(=O)N4CCCCCC4)ccc32)c1 (stereo unspecified)	inactive: -18%	
O=C(Cc1cccs1)Nc1cccc(C(=O)Nc2ccco2)c1	inactive: 1.41%	
Cc1ccc(C)c(S(=O)(=O)NCCOC(=O)Nc2sc(=S)n(C)c2C)c1		inconclusive: 14.6 µM [inhibitor, partial curve]
CN(C)c1ccc(/C=N/NC(=O)c2ccc3c(c2)OCCO3)cc1		inconclusive: 20.6 µM [activator, single point]
C/C=C(\C)C(=O)N1CCC(C(=O)c2ccccc2)CC1	inactive: 0.86%	
O=C(Cc1cc(=O)[nH][nH]1)N/N=C/C=C/c1ccccc1		inconclusive: 20.6 µM [inhibitor, partial curve, poor fit]
CCOC(=O)C1=C(C)Nc2ccc(C)cc2S1	inactive: 11.4%	
CCOC(=O)c1c(NC(=O)CCN2C(=O)c3ccccc3C2=O)sc(C(=O)OC(C)C)c1C		inconclusive: 4.61 µM [inhibitor, single point]
Cc1c(C(=O)O)cccc1-c1ccc(/C=C2/NC(=O)N(c3ccccc3)C2=O)o1		inconclusive: 13 µM [activator, partial curve]
COc1cc(C2C(C(=O)c3ccc(C)o3)=C(O)C(=O)N2c2cc(C)on2)ccc1OCc1ccccc1 (stereo unspecified)		inconclusive: 13 µM [activator, partial curve, poor fit]
Cc1nn(-c2nc3ccccc3s2)c(N)c1-c1ccccc1		inconclusive: 1.16 µM [activator, partial curve]
O=C(c1ccc([N+](=O)[O-])s1)N1CCCc2ccccc21		inconclusive: 16.4 µM [inhibitor, single point]
CCN(CC(=O)Nc1c(F)cccc1F)C(=O)c1ccc(S(=O)(=O)NCc2ccco2)cc1		inconclusive: 11.6 µM [inhibitor, single point]
CC(CN(C)Cc1nc(Cc2cccc(C(F)(F)F)c2)no1)CN1CCCC1 (stereo unspecified)	inactive: 3.84%	
COc1ccc(NC(=O)c2csc3c2CCCC3)cc1		inconclusive: 5.17 µM [activator, partial curve]
O=C(C1CCCN(S(=O)(=O)c2ccccc2)C1)N1CCCc2ccccc21 (stereo unspecified)		active: 23.1 µM
CCn1c(/C=C/c2ccccc2[N+](=O)[O-])nc2ccccc2c1=O		inconclusive: 29.1 µM [inhibitor, single point]
CN(Cc1cccnc1)C(=O)c1ccc(Cl)c(NS(=O)(=O)c2ccc(F)cc2)c1	inactive: 24.6%	
O=C(CBr)c1ccc([N+](=O)[O-])c(CS(=O)(=O)c2ccc(Cl)cc2)c1		inconclusive: 0.231 µM [inhibitor, single point]
Cc1ccc(-n2c(SCC(=O)N3CC(=O)Nc4ccccc43)nc3ccccc3c2=O)cc1C		inconclusive: 25.9 µM [inhibitor, partial curve]
